Experimental data from patent US12332244B2, “Composition for diagnosing diseases associated with COX2 overexpression and screening method therefor” (KYUNGPOOK NATIONAL UNIVERSITY INDUSTRY-ACADEMIC COOPERATION …, priority 2018, dated 2025).
The name of at least one read-out is uncertain.

Tested on: mutant COX2 (N181A, T564A, S565A, S567A)
Assay: Filter binding assay / enzymatic analysis of COX2, mutants
Conditions: S565A and S567A, FIG. 3

CCCCCCCCCCCCC/C=C/[C@@H](O)[C@H](CO)NC(C)=O [N-AS, N-acetyl sphingosine]
catalytic efficiency (Kcat/KM) compared to wild-type COX2: decreased compared to the wild-type COX2
